Source: PubChem BioAssay AID686943 (Drosophila RNAi Screening Center, 2013)
The screen tested about 23,000 reagents; below is a random part of those with a known target gene and a result. 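Extra replicates exist only for a retested subset of genes; insulin dose and duration not given; both raised and lowered dpERK matter.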 Not all columns of the deposit are shown. No sequences are given here. Not given: the amount of reagent, the time to read-out.

Screen: 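Knockdowns that increase or decrease active ERK after insulin receptor stimulation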 (primary screen)
Cells: Drosophila S2R+ haemocyte-like cells expressing YFP-tagged ERK (Rolled)
Reagent: long dsRNA against Drosophila genes
Treatment: insulin stimulation versus unstimulated cells; dose and duration not given
Read-out: 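Antibody staining for doubly phosphorylated ERK divided by ERK-YFP signal, as plate z-scores, in insulin-treated and untreated cells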
Scale: replicate 1, z-score of dpERK with insulin: higher = more active ERK per ERK-YFP after insulin

hop [SID104200132] showed replicate 1, z-score of dpERK with insulin 0.72.
Against Pgi [SID104187299], the entry reads replicate 1, z-score of dpERK with insulin 0.41.
CG30091 [SID104201463] showed replicate 1, z-score of dpERK with insulin -3.4.
After knock-down of CG10053 [SID104192294], the screen gave replicate 1, z-score of dpERK with insulin 0.78.
CG4022 [SID104190187] gave replicate 1, z-score of dpERK with insulin -0.14.
Depletion of ItgaPS5 [SID104184293] gave: replicate 1, z-score of dpERK with insulin 0.01.
After knock-down of zyd [SID104200508], the record shows replicate 1, z-score of dpERK with insulin -0.01.
Against CG12171 [SID104191992], the values are replicate 1, z-score of dpERK with insulin -0.02.
Cht11 [SID104198062] gave replicate 1, z-score of dpERK with insulin -0.28.
Against CG34054 [SID104185069] the deposit lists replicate 1, z-score of dpERK with insulin 0.54.
With knock-down of Srp54k [SID104191081], the record shows replicate 1, z-score of dpERK with insulin -0.51.
After knock-down of CG30393 [SID104184045], the screen gave replicate 1, z-score of dpERK with insulin 0.79.
Knock-down of CG3788 [SID104184210] came out at: replicate 1, z-score of dpERK with insulin 1.39.
Depletion of AlkB [SID104198907] came out at: replicate 1, z-score of dpERK with insulin 0.46.
Depletion of CG45263 [SID104192474] resulted in: replicate 1, z-score of dpERK with insulin 0.57.
Against CG45263 [SID104194149], the entry reads replicate 1, z-score of dpERK with insulin 3.09.
Against CG45263 [SID104194152], the entry reads replicate 1, z-score of dpERK with insulin 0.01.
For CG45263 [SID104194153], the values are replicate 1, z-score of dpERK with insulin -0.82.
For CG45263 [SID104194155], the values are replicate 1, z-score of dpERK with insulin -2.3.
After knock-down of CG4119 [SID104197533], the record shows replicate 1, z-score of dpERK with insulin 1.37.
For Cyp9h1 [SID104187183] the deposit lists replicate 1, z-score of dpERK with insulin 0.11.
